Reference: the supplement of paper PMC4604168 (melanoma cell lines)
This is one part of the list. Repeats are few or missing, and single values can be far off.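 Imaging used 1,536-well plates; nuclei positive for cleaved PARP by antibody were divided by total DNA-stained nuclei to yield the apoptosis fraction. Doses for screening kept most cells viable, and cell lines differ markedly in resting and induced cleaved-PARP levels.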

How the values were obtained:
Assay in all cases: cleaved PARP positive nuclei fraction relative to DMSO control; melanoma cells; higher = more apoptosis
Conditions in all cases: library dose: low library concentration; 72 h
A101D = test system: A101D
A2058 = test system: A2058
A375 = test system: A375
C32 = test system: C32
CBRC008 = test system: CBRC008 (line from a melanoma biopsy)
CBRC013 = test system: CBRC013 (line from a melanoma biopsy)
CBRC014 = test system: CBRC014 (line from a melanoma biopsy)
CBRC016 = test system: CBRC016 (line from a melanoma biopsy)
CBRC017 = test system: CBRC017 (line from a melanoma biopsy)
501Mel = test system: 501Mel

SMILES | cleaved PARP positive nuclei fraction (A101D) | cleaved PARP positive nuclei fraction (A2058) | cleaved PARP positive nuclei fraction (A375) | cleaved PARP positive nuclei fraction (C32) | cleaved PARP positive nuclei fraction (CBRC008) | cleaved PARP positive nuclei fraction (CBRC013) | cleaved PARP positive nuclei fraction (CBRC014) | cleaved PARP positive nuclei fraction (CBRC016) | cleaved PARP positive nuclei fraction (CBRC017) | cleaved PARP positive nuclei fraction (501Mel)
NC1(c2ccc(-c3nc4ccn5c(=O)[nH]nc5c4cc3-c3ccccc3)cc2)CCC1 + CO[C@@H]1[C@H](N(C)C(=O)c2ccccc2)C[C@H]2O[C@]1(C)n1c3ccccc3c3c4c(c5c6ccccc6n2c5c31)C(=O)NC4 [Midostaurin] (first compound 0.4 µM, partner dose 0.08 µM) | 230% | 121% | 296% | 154% | 175% | 104% | 88.3% | 130% | 78.3% | –
C[C@@H](N)c1ccc(C(=O)Nc2ccnc3[nH]ccc23)cc1 + Oc1nc(-c2ccc(C(F)(F)F)cc2)nc2c1CSCC2 [XAV939] (first compound 0.4 µM, partner dose 2 µM) | 29.8% | 75.2% | – | 172% | 153% | – | 118% | 55.1% | 95.6% | 61.6%
CS(=O)(=O)c1ccc(C(=O)Nc2ccc(Cl)c(-c3ccccn3)c2)c(Cl)c1 [vismodegib] + Oc1nc(-c2ccc(C(F)(F)F)cc2)nc2c1CSCC2 [XAV939] (first compound 1 µM, partner dose 2 µM) | 16.6% | 213% | – | 83.1% | 158% | – | 89.3% | 59.3% | 71.8% | 63.6%
CCN(CC)CCNC(=O)c1c(C)[nH]c(/C=C2\C(=O)Nc3ccc(F)cc32)c1C [sunitinib] + CC1(C)NC(=O)N(c2ccc([N+](=O)[O-])c(C(F)(F)F)c2)C1=O [nilutamide] (first compound 0.4 µM, partner dose 1 µM) | 77.7% | 135% | 40.8% | 50.2% | 117% | 245% | 85.8% | 144% | 256% | –
